PubChem BioAssay AID1224830 | NIAID, 2016
Shown is an unselected part of about 18,000 reagents tested. About 2,900 of all reagents (16%) count as active. 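Calls are made per well; low scores hint the gene aids the LPS response, high scores that it dampens it.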 Unmarked entries are inactive. Repeated entries: four replicate wells of each siRNA pool.

Aim: 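Genes whose knock-down alters the TNF-alpha reporter response to LPS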 (primary screen)
Cells: human THP-1 monocytic leukaemia cells, TNF dual-luciferase reporter clone, PMA-differentiated to macrophage-like cells
Knock-down reagent: siRNA pool against human genes, 50 nM
Timing: LPS for 4 h, given about 3 days after siRNA transfection
Conditions: bacterial LPS (TLR4 ligand), 10 ng/ml
Measurement: 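TNF firefly reporter luminescence divided by renilla, normalised to the plate median, then turned into a robust z-score for each replicate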
Direction: TNF reporter robust z-score: higher = stronger TNF reporter response to LPS
Rule for the call: 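a well is active when its z-score exceeds 2.8 or falls below -1.5; control wells carry no call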

For AFF2, what does the deposit list?
TNF reporter robust z-score: 0.63

Which result is listed for AFF2?
TNF reporter robust z-score: 0.64

How did the screen score AFF2?
TNF reporter robust z-score: -0.14

With AFF2, what does the deposit list?
TNF reporter robust z-score: -0.22

How did the screen score DDOST?
TNF reporter robust z-score: 0.96

What did the screen give for DDOST?
TNF reporter robust z-score: 1.24

With DDOST, what does the deposit list?
TNF reporter robust z-score: -0.56

What is on record for DDOST?
TNF reporter robust z-score: -0.98

How did the screen score KCNK17?
TNF reporter robust z-score: 0

How did the screen score KCNK17?
TNF reporter robust z-score: 0.74

With KCNK17, how do the results read?
TNF reporter robust z-score: 0.32

Which result is listed for KCNK17?
TNF reporter robust z-score: -0.42

Which result is listed for CAPN10?
TNF reporter robust z-score: -0.08

With CAPN10, what was measured?
TNF reporter robust z-score: 1.02

For CAPN10, what does the deposit list?
TNF reporter robust z-score: 0.75

With CAPN10, what does the deposit list?
TNF reporter robust z-score: -0.48

With TRIM69, how do the results read?
TNF reporter robust z-score: -0.25

How did the screen score TRIM69?
TNF reporter robust z-score: -1.1

With TRIM69, how do the results read?
TNF reporter robust z-score: -0.04

Which result is listed for UMPS?
TNF reporter robust z-score: 0.4

How did the screen score UMPS?
TNF reporter robust z-score: 0.59

With UMPS, how do the results read?
TNF reporter robust z-score: -0.79

For UMPS, how do the results read?
TNF reporter robust z-score: 0.21

What did the screen give for H2AC4?
TNF reporter robust z-score: -0.6

What is on record for H2AC4?
TNF reporter robust z-score: 0.57

With H2AC4, how do the results read?
TNF reporter robust z-score: -0.95

What is on record for H2AC4?
TNF reporter robust z-score: -0.9

With GPR75, what was measured?
TNF reporter robust z-score: -0.36

What did the screen give for GPR75?
TNF reporter robust z-score: -0.34

With GPR75, how do the results read?
TNF reporter robust z-score: -0.65

What is on record for GPR75?
TNF reporter robust z-score: 0.82

Additional entries follow.
For BMS1, how do the results read?
TNF reporter robust z-score: -1.15

How did the screen score BMS1?
TNF reporter robust z-score: -1.21

For BMS1, what does the deposit list?
TNF reporter robust z-score: -1.59 (active)

What did the screen give for BMS1?
TNF reporter robust z-score: -1.72 (active)

What did the screen give for CCDC144NL?
TNF reporter robust z-score: 0.44

For CCDC144NL, how do the results read?
TNF reporter robust z-score: -0.91

For CCDC144NL, what does the deposit list?
TNF reporter robust z-score: -0.79

Which result is listed for CCDC144NL?
TNF reporter robust z-score: -0.7

With CCDC144NL, what was measured?
TNF reporter robust z-score: 2.11

With CCDC144NL, what does the deposit list?
TNF reporter robust z-score: 0.74

With CCDC144NL, what does the deposit list?
TNF reporter robust z-score: 2.86 (active)

What did the screen give for CCDC144NL?
TNF reporter robust z-score: 2.29

How did the screen score RPL38?
TNF reporter robust z-score: -0.31

What did the screen give for RPL38?
TNF reporter robust z-score: -0.74

What is on record for RPL38?
TNF reporter robust z-score: -0.41

For RPL38, what does the deposit list?
TNF reporter robust z-score: -0.24

Which result is listed for RAB3A?
TNF reporter robust z-score: 0.64

For RAB3A, what was measured?
TNF reporter robust z-score: 2.44

For RAB3A, how do the results read?
TNF reporter robust z-score: 2.42

With RAB3A, what was measured?
TNF reporter robust z-score: 1.13

Which result is listed for CES2?
TNF reporter robust z-score: 1.52

For CES2, what does the deposit list?
TNF reporter robust z-score: 0.94

For CES2, what does the deposit list?
TNF reporter robust z-score: 0.64

How did the screen score CES2?
TNF reporter robust z-score: 1.93

For ANK3, how do the results read?
TNF reporter robust z-score: -0.41

What did the screen give for ANK3?
TNF reporter robust z-score: 0.55

Which result is listed for ANK3?
TNF reporter robust z-score: 0.43

What did the screen give for ANK3?
TNF reporter robust z-score: 2.32

With P4HA3, what was measured?
TNF reporter robust z-score: -0.43

With P4HA3, what was measured?
TNF reporter robust z-score: 0.24

Which result is listed for P4HA3?
TNF reporter robust z-score: 0.18

What is on record for P4HA3?
TNF reporter robust z-score: 0.93
